Source: patent US7683040B2, “Intranasal formulation of rotigotine” (SRZ Properties, Inc., priority 2003, dated 2010)
Counter-ions that a name gives are not always drawn. At least one read-out could not be matched to a standard name with certainty.

Assay: (maximum) solubility in aqueous solution with α- or β-cyclodextrin, isocratic HPLC
Type: physicochemical
Details: by adding 0.1 g/ml α-cyclodextrin
Procedure: The concentration was determined by isocratic HPLC analysis. HPLC column LiChroCART 75×4 mm, Superspher 60 RP-select B 5 μm (Merck), column temperature: 30° C., mobile phase: water/acetonitrile/methane sulfonic acid (65/35/0.05 v/v/v), flow rate: 2 mL/min, injection volume: 50 μl, detection at 220 nm, retention time approx. 1.5 min. The concentration was determined by use of an external reference solution with known concentration.

With `CCCN(CCc1cccs1)[C@H]1CCc2c(O)cccc2C1` [Rotigotine hydrochloride] the increase of solubility was “five-fold”.
